For part of these data: No signal at the amounts used counts as a negative. Where a protein sequence is shown, tags need not be part of it. For part of these data: The exact form of at least one protein or probe is not confirmed. For part of these data: The comparison behind a weaker result is the experiment's own reference, which may not be listed here. For part of these data: At least one verdict rests on a figure or table, not on a statement of the authors.

For data set [1], the target named is T1, Cdc13-DBD (Saccharomyces cerevisiae (strain SCY325)) (UniProt P32797).
T1 sequence (looked up): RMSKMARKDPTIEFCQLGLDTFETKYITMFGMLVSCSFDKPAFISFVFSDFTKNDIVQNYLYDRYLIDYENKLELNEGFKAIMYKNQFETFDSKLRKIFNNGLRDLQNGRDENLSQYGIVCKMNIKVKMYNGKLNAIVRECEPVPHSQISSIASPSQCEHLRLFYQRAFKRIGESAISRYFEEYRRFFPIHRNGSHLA
In words: EMSA. As to conditions: probe folded >24 h in K+ buffer, decreased vs 20 min folding; 5' phosphate; EMSA: 1x K+ buffer (20 mM potassium phosphate pH 7.0, 135 mM KCl, 9% glycerol), 10 min at 22 C/RT, 6% PAGE in 0.5x TBE; recombinant protein; residues 497-694; label: 5'-32P; single-stranded DNA.

Data set [2] concerns the target T1, Cdc13-DBD (Saccharomyces cerevisiae (strain SCY325)). In words: NMR. Conditions: equimolar in K+TD buffer, no imino line broadening, no stable complex, recombinant protein, residues 497-694, folded or branched DNA.
For data set [3] the target is unchanged. In words: competition with a labelled probe. Conditions: EMSA: 1x K+ buffer (20 mM potassium phosphate pH 7.0, 135 mM KCl, 9% glycerol), 10 min at 22 C/RT, 6% PAGE in 0.5x TBE, recombinant protein, residues 497-694.
The mark [4] stands for this setting: folded 72 h in K+ buffer, 50 or 75 nM, vs 32P-ONG11, folded or branched DNA.

For the sequence GTGTGGGTGTG [ONG11 5'-32P probe], in data set [1], the binding result is reported as “binds more weakly”.

For the sequence GTGTGGGTGTG [ONG11 folded G-hairpin], the binding result in data set [2] (folded species) was “no binding”; in data set [3] (24 h in K+ buffer, loses competing ability vs 20 min, folded or branched DNA), “binds more weakly”; in data set [3] (setting [4]), “binds more weakly”.

On to “GTGTGGGTGTG [ONG11 unfolded (H2O or freshly boiled)]”, for which, in data set [3] (20 min in K+ buffer, mostly still unfolded, label: none as competitor, single-stranded DNA), the binding result is on record as “binds”.

Turning to “GTGTGGGTGTGGTGTGGGTGTGGTGTGGGTGTG [ONG1 folded G4]”, the binding result in data set [2] is given as “no binding”; in data set [3] (20 min in K+ buffer, poor competitor, unchanged at 24 h, folded or branched DNA) it was “binds more weakly”; in data set [3] (folded 24 h in K+ buffer, 100-1000 nM, similar to ONG9, folded or branched DNA), “binds more weakly”; in data set [3] (setting [4]) it was “binds more weakly”.

TGGGTGTGGTGTGGGTGTGGT [ONG9 folded G4]: the binding result in data set [2] is “no binding”; in data set [3] (folded 24 h in K+ buffer, 100-1000 nM, similar to ONG1, folded or branched DNA), “binds more weakly”.

In the case of TGTGGGTGTG [Cdc13-NC], the binding result in data set [3] (unlabelled negative-control competitor vs 32P-ONG11, single-stranded DNA) is reported as “binds more weakly”.

The values above are taken from publication PMC7335780, “Role of folding kinetics of secondary structures in telomeric G-overhangs in the regulation of telomere maintenance in Saccharomyces cerevisiae”.
